No constants are given. Whether binding was seen depends on the method and setting. In cells and extracts the contact can be indirect. A yes stands for co-enrichment or nearness to the bait. Other partners may have been found.
Tests used:
Test in all cases: affinity purification with mass spectrometry
[1] = target: T1, catalase (CAT) (human (endogenous in HeLa)) (UniProt P04040)
T1 sequence: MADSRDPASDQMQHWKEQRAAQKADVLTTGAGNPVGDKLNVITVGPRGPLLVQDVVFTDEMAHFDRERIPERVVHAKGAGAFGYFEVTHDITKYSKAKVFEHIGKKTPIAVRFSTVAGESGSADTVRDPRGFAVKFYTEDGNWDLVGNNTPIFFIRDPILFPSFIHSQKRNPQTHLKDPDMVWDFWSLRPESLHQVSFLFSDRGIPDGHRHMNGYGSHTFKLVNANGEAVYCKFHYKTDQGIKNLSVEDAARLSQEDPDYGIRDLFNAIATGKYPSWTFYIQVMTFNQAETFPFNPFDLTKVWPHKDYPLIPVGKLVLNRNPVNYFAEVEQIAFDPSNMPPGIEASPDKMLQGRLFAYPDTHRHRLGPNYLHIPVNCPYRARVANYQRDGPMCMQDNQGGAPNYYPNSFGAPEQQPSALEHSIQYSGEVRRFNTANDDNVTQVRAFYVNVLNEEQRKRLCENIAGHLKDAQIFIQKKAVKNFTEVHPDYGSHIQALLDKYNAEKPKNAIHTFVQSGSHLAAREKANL

By UniProt entry, the sequences of proteins in these tests, tags left out.
UniProt P00441: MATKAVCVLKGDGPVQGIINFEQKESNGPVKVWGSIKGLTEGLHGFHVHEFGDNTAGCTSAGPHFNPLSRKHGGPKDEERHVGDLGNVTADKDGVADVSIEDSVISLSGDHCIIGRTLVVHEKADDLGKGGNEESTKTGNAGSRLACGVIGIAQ

[2] = target: Cu/Zn superoxide dismutase (SOD1) (human (endogenous in HeLa)) (UniProt P00441)
[3] = target: T2, peroxiredoxin 2 (PRDX2) (human (endogenous in HeLa)) (UniProt P32119)
T2 sequence: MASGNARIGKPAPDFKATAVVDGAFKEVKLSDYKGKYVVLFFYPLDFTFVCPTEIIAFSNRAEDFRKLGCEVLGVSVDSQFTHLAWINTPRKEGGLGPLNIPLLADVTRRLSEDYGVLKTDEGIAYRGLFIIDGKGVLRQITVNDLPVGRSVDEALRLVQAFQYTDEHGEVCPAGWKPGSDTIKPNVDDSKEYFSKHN

[4] = target: T3, catalase (CAT) (human (endogenous in HeLa)), P04040; details: remark: other sources report otherwise
T3 chain: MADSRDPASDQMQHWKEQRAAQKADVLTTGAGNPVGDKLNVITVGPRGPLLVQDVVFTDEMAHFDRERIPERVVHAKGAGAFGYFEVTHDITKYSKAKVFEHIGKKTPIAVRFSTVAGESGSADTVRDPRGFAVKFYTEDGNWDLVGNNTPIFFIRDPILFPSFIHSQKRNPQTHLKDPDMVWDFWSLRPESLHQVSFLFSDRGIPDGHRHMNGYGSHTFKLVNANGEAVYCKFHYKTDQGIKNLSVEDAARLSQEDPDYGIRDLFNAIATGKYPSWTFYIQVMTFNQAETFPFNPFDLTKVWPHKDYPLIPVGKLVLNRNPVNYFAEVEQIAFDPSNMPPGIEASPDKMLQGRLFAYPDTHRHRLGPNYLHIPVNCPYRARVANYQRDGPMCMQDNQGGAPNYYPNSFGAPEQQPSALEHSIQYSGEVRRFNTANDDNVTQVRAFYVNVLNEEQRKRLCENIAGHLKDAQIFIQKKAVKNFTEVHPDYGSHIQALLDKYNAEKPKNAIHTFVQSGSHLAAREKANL

B1: PRIM2 (a DNA primase subunit) (protein, UniProt P49643 1-509)
chain: MEFSGRKWRKLRLAGDQRNASYPHCLQFYLQPPSENISLIEFENLAIDRVKLLKSVENLGVSYVKGTEQYQSKLESELRKLKFSYRENLEDEYEPRRRDHISHFILRLAYCQSEELRRWFIQQEMDLLRFRFSILPKDKIQDFLKDSQLQFEAISDEEKTLREQEIVASSPSLSGLKLGFESIYKIPFADALDLFRGRKVYLEDGFAYVPLKDIVAIILNEFRAKLSKALALTARSLPAVQSDERLQPLLNHLSHSYTGQDYSTQGNVGKISLDQIDLLSTKSFPPCMRQLHKALRENHHLRHGGRMQYGLFLKGIGLTLEQALQFWKQEFIKGKMDPDKFDKGYSYNIRHSFGKEGKRTDYTPFSCLKIILSNPPSQGDYHGCPFRHSDPELLKQKLQSYKISPGGISQILDLVKGTHYQVACQKYFEMIHNVDDCGFSLNHPNQFFCESQRILNGGKDIKKEPIQPETPQPKPSVQKTKDASSALASLNSSLEMDMEGLEDYFSEDS
binding [1]: binds | binding [2]: binds | binding [3]: binds

B2: PRDX1 (protein, UniProt Q06830 1-199)
chain: MSSGNAKIGHPAPNFKATAVMPDGQFKDISLSDYKGKYVVFFFYPLDFTFVCPTEIIAFSDRAEEFKKLNCQVIGASVDSHFCHLAWVNTPKKQGGLGPMNIPLVSDPKRTIAQDYGVLKADEGISFRGLFIIDDKGILRQITVNDLPVGRSVDETLRLVQAFQFTDKHGEVCPAGWKPGSDTIKPDVQKSKEYFSKQK
binding [2]: binds

B3: PRDX4 (protein, UniProt Q13162 38-271)
chain: WETEERPRTREEECHFYAGGQVYPGEASRVSVADHSLHLSKAKISKPAPYWEGTAVIDGEFKELKLTDYRGKYLVFFFYPLDFTFVCPTEIIAFGDRLEEFRSINTEVVACSVDSQFTHLAWINTPRRQGGLGPIRIPLLSDLTHQISKDYGVYLEDSGHTLRGLFIIDDKGILRQITLNDLPVGRSVDETLRLVQAFQYTDKHGEVCPAGWKPGSETIIPDPAGKLKYFDKLN
binding [1]: binds | binding [2]: binds | binding [3]: binds

B4: PRDX6 (protein, UniProt P30041 1-224)
chain: MPGGLLLGDVAPNFEANTTVGRIRFHDFLGDSWGILFSHPRDFTPVCTTELGRAAKLAPEFAKRNVKLIALSIDSVEDHLAWSKDINAYNCEEPTEKLPFPIIDDRNRELAILLGMLDPAEKDEKGMPVTARVVFVFGPDKKLKLSILYPATTGRNFDEILRVVISLQLTAEKRVATPVDWKDGDSVMVLPTIPEEEAKKLFPKGVFTKELPSGKKYLRYTPQP
binding [1]: binds | binding [2]: binds | binding [3]: binds

B5: GPX8 (protein, UniProt Q8TED1 1-209)
chain: MEPLAAYPLKCSGPRAKVFAVLLSIVLCTVTLFLLQLKFLKPKINSFYAFEVKDAKGRTVSLEKYKGKVSLVVNVASDCQLTDRNYLGLKELHKEFGPSHFSVLAFPCNQFGESEPRPSKEVESFARKNYGVTFPIFHKIKILGSEGEPAFRFLVDSSKKEPRWNFWKYLVNPEGQVVKFWKPEEPIEVIRPDIAALVRQVIIKKKEDL
binding [1]: binds | binding [2]: binds | binding [3]: binds

B6: TXN (protein, UniProt P10599 1-105)
chain: MVKQIESKTAFQEALDAAGDKLVVVDFSATWCGPCKMIKPFFHSLSEKYSNVIFLEVDVDDCQDVASECEVKCMPTFQFFKKGQKVGEFSGANKEKLEATINELV
binding [1]: binds | binding [2]: binds | binding [3]: binds

B7: PRDX1, Q06830 1-199 (protein)
chain: MSSGNAKIGHPAPNFKATAVMPDGQFKDISLSDYKGKYVVFFFYPLDFTFVCPTEIIAFSDRAEEFKKLNCQVIGASVDSHFCHLAWVNTPKKQGGLGPMNIPLVSDPKRTIAQDYGVLKADEGISFRGLFIIDDKGILRQITVNDLPVGRSVDETLRLVQAFQFTDKHGEVCPAGWKPGSDTIKPDVQKSKEYFSKQK
binding [4]: binds

B8: PRDX5 (protein, UniProt P30044 53-214)
chain: MAPIKVGDAIPAVEVFEGEPGNKVNLAELFKGKKGVLFGVPGAFTPGCSKTHLPGFVEQAEALKAKGVQVVACLSVNDAFVTGEWGRAHKAEGKVRLLADPTGAFGKETDLLLDDSLVSIFGNRRLKRFSMVVQDGIVKALNVEPDGTGLTCSLAPNIISQL
binding [1]: binds | binding [3]: binds

B9: MCM3 (protein, UniProt P25205 1-808)
chain: MAGTVVLDDVELREAQRDYLDFLDDEEDQGIYQSKVRELISDNQYRLIVNVNDLRRKNEKRANRLLNNAFEELVAFQRALKDFVASIDATYAKQYEEFYVGLEGSFGSKHVSPRTLTSCFLSCVVCVEGIVTKCSLVRPKVVRSVHYCPATKKTIERRYSDLTTLVAFPSSSVYPTKDEENNPLETEYGLSVYKDHQTITIQEMPEKAPAGQLPRSVDVILDDDLVDKAKPGDRVQVVGTYRCLPGKKGGYTSGTFRTVLIACNVKQMSKDAQPSFSAEDIAKIKKFSKTRSKDIFDQLAKSLAPSIHGHDYVKKAILCLLLGGVERDLENGSHIRGDINILLIGDPSVAKSQLLRYVLCTAPRAIPTTGRGSSGVGLTAAVTTDQETGERRLEAGAMVLADRGVVCIDEFDKMSDMDRTAIHEVMEQGRVTIAKAGIHARLNARCSVLAAANPVYGRYDQYKTPMENIGLQDSLLSRFDLLFIMLDQMDPEQDREISDHVLRMHRYRAPGEQDGDAMPLGSAVDILATDDPNFSQEDQQDTQIYEKHDNLLHGTKKKKEKMVSAAFMKKYIHVAKIIKPVLTQESATYIAEEYSRLRSQDSMSSDTARTSPVTARTLETLIRLATAHAKARMSKTVDLQDAEEAVELVQYAYFKKVLEKEKKRKKRSEDESETEDEEEKSQEDQEQKRKRRKTRQPDAKDGDSYDPYDFSDTEEEMPQVHTPKTADSQETKESQKVELSESRLKAFKVALLDVFREAHAQSIGMNRLTESINRDSEEPFSSVEIQAALSKMQDDNQVMVSEGIIFLI
binding [2]: binds | binding [3]: binds

B10: MCM6 (protein, UniProt Q14566 1-821)
chain: MDLAAAAEPGAGSQHLEVRDEVAEKCQKLFLDFLEEFQSSDGEIKYLQLAEELIRPERNTLVVSFVDLEQFNQQLSTTIQEEFYRVYPYLCRALKTFVKDRKEIPLAKDFYVAFQDLPTRHKIRELTSSRIGLLTRISGQVVRTHPVHPELVSGTFLCLDCQTVIRDVEQQFKYTQPNICRNPVCANRRRFLLDTNKSRFVDFQKVRIQETQAELPRGSIPRSLEVILRAEAVESAQAGDKCDFTGTLIVVPDVSKLSTPGARAETNSRVSGVDGYETEGIRGLRALGVRDLSYRLVFLACCVAPTNPRFGGKELRDEEQTAESIKNQMTVKEWEKVFEMSQDKNLYHNLCTSLFPTIHGNDEVKRGVLLMLFGGVPKTTGEGTSLRGDINVCIVGDPSTAKSQFLKHVEEFSPRAVYTSGKASSAAGLTAAVVRDEESHEFVIEAGALMLADNGVCCIDEFDKMDVRDQVAIHEAMEQQTISITKAGVKATLNARTSILAAANPISGHYDRSKSLKQNINLSAPIMSRFDLFFILVDECNEVTDYAIARRIVDLHSRIEESIDRVYSLDDIRRYLLFARQFKPKISKESEDFIVEQYKHLRQRDGSGVTKSSWRITVRQLESMIRLSEAMARMHCCDEVQPKHVKEAFRLLNKSIIRVETPDVNLDQEEEIQMEVDEGAGGINGHADSPAPVNGINGYNEDINQESAPKASLRLGFSEYCRISNLIVLHLRKVEEEEDESALKRSELVNWYLKEIESEIDSEEELINKKRIIEKVIHRLTHYDHVLIELTQAGLKGSTEGSESYEEDPYLVVNPNYLLED
binding [2]: binds | binding [3]: binds

B11: catalase (CAT) (protein, UniProt P04040 1-527)
chain: MADSRDPASDQMQHWKEQRAAQKADVLTTGAGNPVGDKLNVITVGPRGPLLVQDVVFTDEMAHFDRERIPERVVHAKGAGAFGYFEVTHDITKYSKAKVFEHIGKKTPIAVRFSTVAGESGSADTVRDPRGFAVKFYTEDGNWDLVGNNTPIFFIRDPILFPSFIHSQKRNPQTHLKDPDMVWDFWSLRPESLHQVSFLFSDRGIPDGHRHMNGYGSHTFKLVNANGEAVYCKFHYKTDQGIKNLSVEDAARLSQEDPDYGIRDLFNAIATGKYPSWTFYIQVMTFNQAETFPFNPFDLTKVWPHKDYPLIPVGKLVLNRNPVNYFAEVEQIAFDPSNMPPGIEASPDKMLQGRLFAYPDTHRHRLGPNYLHIPVNCPYRARVANYQRDGPMCMQDNQGGAPNYYPNSFGAPEQQPSALEHSIQYSGEVRRFNTANDDNVTQVRAFYVNVLNEEQRKRLCENIAGHLKDAQIFIQKKAVKNFTEVHPDYGSHIQALLDKYNAEKPKNAIHTFVQSGSHLAAREKANL
binding [2]: binds

B12: peroxiredoxin 2 (PRDX2) (protein, UniProt P32119 1-198)
chain: MASGNARIGKPAPDFKATAVVDGAFKEVKLSDYKGKYVVLFFYPLDFTFVCPTEIIAFSNRAEDFRKLGCEVLGVSVDSQFTHLAWINTPRKEGGLGPLNIPLLADVTRRLSEDYGVLKTDEGIAYRGLFIIDGKGVLRQITVNDLPVGRSVDEALRLVQAFQYTDEHGEVCPAGWKPGSDTIKPNVDDSKEYFSKHN
binding [1]: binds | binding [2]: binds

Reference: article doi:10.1101/2025.08.11.669663
